## Screening data, single-dose tests

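Assay of Toxoplasma gondii numbers, read through their beta-galactosidase reporter with a colour substrate. Tested at 50 µM. The record gives no direction; the compounds picked for IC50 retests had high values, so higher reads as fewer parasites. Size under these conditions: about 18,000 compounds, about 170 of them at 50% or above in at least one test.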

Results are given as percent effect.
The record does not define 0% and 100%; most values in the screen are far below 50% and negative numbers occur (in some assays of this library far below -100).
Compounds were drawn at random from those tested, without regard to their results.

| # | structure | effect |
|---|---|---|
| 1 | `c1cnc2c(c1)OCCN2` | 3.036 |
| 2 | `CC(C)c1csc(C(=O)N2CCOc3ncccc32)n1` | 1.959 |
| 3 | `O=C(CC1=CCCCC1)N1CCOc2ccncc21` | -3.271 |
| 4 | `CCCN(CCOC)CC(=O)Nc1ccn(C)n1` | -25.42 |
| 5 | `COc1ccc2nc(CCN)[nH]c2c1` | -8.424 |
| 6 | `CCN1CCN(Cc2nc(C(C)C)no2)CC1` | -3.915 |
| 7 | `CN(C)CCCNC(=O)COc1ccccc1` | -1.996 |
| 8 | `Cc1ccc(CNC(CN2CCOCC2)C(C)C)nc1` (stereo not shown) | 4.506 |
| 9 | `Cc1ccc(NCc2cccc(O)c2)cc1S(C)(=O)=O` | 0.1098 |
| 10 | `COCCn1ccnc1CN(C)[C@H]1COC[C@@H]1O` | -5.172 |
| 11 | `CC1COCCN1Cc1cn2ccccc2n1` (stereo not shown) | 7.45 |
| 12 | `CC(C)c1c(N)c(=O)n(-c2ccccc2)n1C` | -6.776 |
| 13 | `CCS(=O)(=O)N(C)CCCNc1cc(C)ccn1` | -0.1809 |
| 14 | `CCn1ncnc1CN1CCCCC1c1ccccn1` (stereo not shown) | 22.51 |
| 15 | `CCOc1cc(C(=O)OCC(=O)NC)cc(Br)c1OC` | -11.76 |
| 16 | `CNCCN1CCOC(C)(C)C1` | 2.056 |
| 17 | `CCCC(N)c1nnc2ccccn12` (stereo not shown) | -3.315 |
| 18 | `NC1CCN(c2ccccn2)CC1` | -3.399 |
| 19 | `O=S1(=O)CCCN1CCNc1ncc(Cl)cc1Cl` | -1.147 |
| 20 | `CC1CCN(C(=O)CSc2nncs2)CC1` | 49.18 |
| 21 | `CC(CO)(CO)NC(=O)Nc1cc(Br)ccc1F` | 12.92 |
| 22 | `CN1CCN(C(=O)C2(c3ccccc3F)CC2)CC1=O` | -7.196 |
| 23 | `Cc1cc(Br)cnc1N(C)CC(O)CN1CCOCC1` (stereo not shown) | 3.456 |
| 24 | `CN1CCCC(CN2CCN(c3nc[nH]n3)CC2)C1` (stereo not shown) | 4.975 |
| 25 | `N#Cc1cccc(C(=O)NCC(O)C2CCOCC2)c1` (stereo not shown) | -2.838 |
| 26 | `CCc1c(C)nc(N)nc1NCc1noc(COC)n1` | 10.18 |
| 27 | `CCN(CC(C)C#N)C(=O)c1ccc2ccccc2n1` (stereo not shown) | -8.851 |
| 28 | `CCn1c(CN2CCN(C)CC2)nnc1[C@H]1C[C@@H](N)C1` | 2.879 |
| 29 | `CN(C)C(CNC(=O)Nc1ccccn1)c1ccco1` (stereo not shown) | -14.77 |
| 30 | `CNS(=O)(=O)N1CCc2ccccc2C1` | 30.15 |
| 31 | `CCC(CC)(CN)C(=O)N1CCN(C(=O)N(C)C)CC1` | -0.2508 |
| 32 | `Cn1ccc(C(=O)Nc2ccc(Br)cn2)n1` | -32.58 |
| 33 | `CC(C)Cc1ccc(CS(=O)(=O)CCO)cc1` | 1.783 |
| 34 | `CN1CCN(c2ccc3ccccc3n2)CC(O)C1` (stereo not shown) | 2.795 |
| 35 | `Cc1ccc(NC(=O)CSC2=NCCN2)cc1` | 4.018 |
| 36 | `CCn1cnnc1C(C)NC(=O)c1cc(CO)ccn1` (stereo not shown) | -9.355 |
| 37 | `O=S(=O)(c1ccsc1CO)N1CCOCC1` | 2.586 |
| 38 | `c1ccc(CN2CCCN(CC3CCOC3)CC2)nc1` (stereo not shown) | -20.09 |
| 39 | `CC(CN)N(C)C(=O)Cc1ccc(F)c(F)c1` (stereo not shown) | -0.5161 |
| 40 | `O=C(Cn1cccn1)NCCc1ccc2c(c1)OCO2` | -6.073 |
| 41 | `COc1ccc(F)cc1C(=O)N1CCC(C(C)(C)O)C1` (stereo not shown) | 1.515 |
| 42 | `CNC(=O)Cc1noc(C=C2CCC2)n1` | 10.11 |
| 43 | `CCC(C)NC(=O)c1cnn(-c2ccccc2)c1` (stereo not shown) | -7.328 |
| 44 | `c1cc2nnnn2nc1NCC1CCCC1` | 14.17 |
| 45 | `COC(=O)CC1CSCCN1Cc1cnn(C)c1` (stereo not shown) | 11.45 |
| 46 | `CCNc1ncc(C(=O)NCc2cnc(C)cn2)cn1` | 1.193 |
| 47 | `COc1ccc(F)cc1C(=O)N1CCC(CN)CC1` | -0.7009 |
| 48 | `O=C(NCCCn1cccn1)c1ccccc1O` | 7.088 |
| 49 | `CSCc1noc(CNc2cc(C(C)C)nc(N)n2)n1` | 28.02 |
| 50 | `c1ccc2c(c1)CCC21CNCCO1` (stereo not shown) | 8.614 |
| 51 | `Cc1cccnc1NC(=O)COc1c(O)ccnc1C` | 12.42 |
| 52 | `Cc1cc(C)n(CC(=O)Nc2ccc(C(N)=O)cc2)n1` | -20.52 |
| 53 | `CCNCCOc1cccc(OCC)c1` | 24.65 |
| 54 | `Cc1cc(C)cc(NC(=O)N[C@@H]2CNCC[C@H]2O)c1` | -6.492 |
| 55 | `CCc1cnc(N)nc1NCC(O)CN(C)C` (stereo not shown) | -2.756 |

4 of the entries, repeated:

| structure | effect |
|---|---|
| `CCc1cnc(N)nc1NCC(O)CN(C)C` (stereo not shown) | -2.756 |
| `CNS(=O)(=O)N1CCc2ccccc2C1` | 30.15 |
| `COCCn1ccnc1CN(C)[C@H]1COC[C@@H]1O` | -5.172 |
| `Cc1ccc(CNC(CN2CCOCC2)C(C)C)nc1` (stereo not shown) | 4.506 |

Measurements from “University of Dundee, Small-Polar-MMV Screening Library” (2021), ChEMBL document CHEMBL3988442.